Source: patent US8323925B2, “Aβ-binding protein and its peptide derivatives and uses thereof” (priority 2005, dated 2012)
At least one peptide structure holds a part that was inferred or is arguable (an end, a ring closure or a residue). Some entries repeat one wording, which the source may state once for all of them. No end group written: not given here.

Protein sequences, listed by entry. Tags and fused reporters are not part of them. Residues count along the entry.
UniProt P05067, 672-713 limits assumed: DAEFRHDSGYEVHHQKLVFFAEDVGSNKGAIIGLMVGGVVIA

How the values were obtained:
primary cortical neurons = test: FITC-Aβ cellular association and uptake; format: cell-based, rat; conditions: green fluorescence (FIG. 4C)
[1] = tested on: Aβ binding to proteins from mouse neuroblastoma cells, N1E; test: Aβ overlay assay on protein trans-blots; conditions: over-lay assay, N1E (FIG. 4A)
[2] = tested on: Aβ binding to proteins from human neuroblastoma cells, SHSY; test: Aβ overlay assay on protein trans-blots; conditions: over-lay assay, SHSY (FIG. 4A)
Aβ1-42 [3] = molecular target: T1, Aβ1-42 (Homo sapiens, UniProt P05067); test: Aβ binding of PK-4-derived peptides by dot blot and ELISA; conditions: for Aβ binding in the presence of serum proteins: ELISA, serum proteins present (FIG. 3D); for Aβ binding: dot blot and ELISA, 100 nM Aβ
[4] = tested on: Aβ interaction with human brain proteins (normal, NB and Alzheimer's, ADB); test: Aβ overlay assay on protein trans-blots; format: binding; conditions: normal (NB) and Alzheimer's disease patients (FIG. 4B)
[5] = tested on: Alzheimer's Disease (AD) transgenic mice; test: Brain Aβ burden in Alzheimer's Disease transgenic mice; format: in vivo, mouse; conditions: subcutaneously every second day for two months; 6E10 staining; preliminary
Aβ1-42 [6] = molecular target: T1, Aβ1-42; test: Aβ aggregation by western blot analysis; format: biochemical; conditions: Aβ1-42 with equimolar peptide, 37° C.
rat brain PKC = test: PKC inhibitory activity in vitro; format: biochemical; conditions: rat brain PKC (FIG. 5)
Description: Various synthetic peptides derived from PK-4 (see FIG. 2) were tested for PKC inhibitory activity in vitro using rat brain PKC.

Human astrocytes = test: Aβ-induced oxidative stress (NO generation); format: cell-based; conditions: Aβ25-35
[7] = tested on: Primary rat cortical neurons; test: Aβ-induced breakdown of synaptic proteins (western blot); format: cell-based
[8] = tested on: Aβ binding to proteins from primary rat cortical neurons; test: Aβ binding to proteins from primary cortical neurons; conditions: data not shown
[9] = tested on: Human neuroblastoma cells, SH-SY5Y; test: Protection against Aβ-induced toxicity (Hoechst stain); format: cell-based; conditions: 15 μM Aβ, 48 hrs; for protection of neuroblastoma cells against Aβ-induced toxicity: serum-free medium

Row | Sequence | inhibition of cellular association and uptake of Aβ by primary neurons (primary cortical neurons) | inhibition of binding of Aβ to proteins from mouse neuroblastoma cells [1] | inhibition of binding of Aβ to proteins from human neuroblastoma cells [2] | Aβ binding in the presence of serum proteins (Aβ1-42 [3]) | Aβ binding (Aβ1-42 [3]) | inhibition of Aβ interaction with human brain proteins [4] | brain Aβ burden [5] | Aβ aggregation (Aβ1-42 [6]) | PKC inhibitory activity (rat brain PKC) | Aβ-induced oxidative stress (NO generation) (Human astrocytes) | Aβ-induced breakdown of DRP-3 ([7]; Aβ1-42, Aβ20 μM, western blot (FIG. 11 B)) | Aβ-induced breakdown of Gap-43 ([7]; Aβ1-42, western blot (FIG. 11A)) | inhibition of Aβ binding to proteins from primary rat cortical neurons [8] | protection of neuroblastoma cells against Aβ-induced toxicity [9] | blocking Aβ toxicity ([9]; 30 μM peptide, Hoechst stain)
1 | FSSMPDPVDPTTVTKTFKTRKASAQASLASKDKTPKSKSK [Peptide P4] | inhibit | inhibit | inhibit | able to bind Aβ | high affinity (nM range) | inhibit | reduce brain Aβ burden | reduced the amount of aggregated forms of Aβ | no effect | inhibit Aβ-induced oxidative stress | partially blocked | partially blocked | inhibit | effectively protected | 
2 | KTFKTRKASAQASLASKDKTPKSKSKKRNSTQLKSRVKNI [Peptide P4-5] | inhibit | inhibit | inhibit |  | high affinity (nM range) | inhibit | reduce brain Aβ burden |  |  |  |  |  | inhibit | effectively protected | quite effective
3 | KDKTPKSKSKKRNSTQLKSRVKNITHARRILQQSNRNACN [Peptide P5] | inhibit | inhibit | inhibit | able to bind Aβ | high affinity (nM range) | inhibit | reduce brain Aβ burden | reduced the amount of aggregated forms of Aβ | exhibited PKC inhibitory activity | inhibit Aβ-induced oxidative stress |  |  | inhibit |  | 
